# Laboratory results: the supplement of paper PMC12067093, “Discovery and optimisation of a covalent ligand for TRIM25 and its application to targeted protein ubiquitination” (Chemical Science, 2025)
# Sequences of proteins named here, by UniProt entry; tags and fusion partners are left off. A change or cut given only in a name is not applied to a line headed by its entry.
# UniProt Q9H0B6: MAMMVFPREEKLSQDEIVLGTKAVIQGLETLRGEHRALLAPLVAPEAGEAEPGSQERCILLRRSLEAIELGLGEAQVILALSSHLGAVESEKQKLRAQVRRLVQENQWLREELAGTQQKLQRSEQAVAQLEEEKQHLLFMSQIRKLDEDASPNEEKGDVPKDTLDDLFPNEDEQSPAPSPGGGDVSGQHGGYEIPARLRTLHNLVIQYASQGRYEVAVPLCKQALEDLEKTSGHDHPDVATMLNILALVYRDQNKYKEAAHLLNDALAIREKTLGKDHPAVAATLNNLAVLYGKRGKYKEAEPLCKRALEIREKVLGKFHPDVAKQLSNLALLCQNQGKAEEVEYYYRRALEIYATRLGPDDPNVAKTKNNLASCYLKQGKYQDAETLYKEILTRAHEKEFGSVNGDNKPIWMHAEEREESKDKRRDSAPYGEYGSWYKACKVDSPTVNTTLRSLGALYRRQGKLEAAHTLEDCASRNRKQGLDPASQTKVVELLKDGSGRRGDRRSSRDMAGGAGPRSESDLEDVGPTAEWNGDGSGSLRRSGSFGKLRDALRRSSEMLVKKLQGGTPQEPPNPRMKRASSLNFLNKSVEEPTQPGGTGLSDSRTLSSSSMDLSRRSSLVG
# UniProt P33176: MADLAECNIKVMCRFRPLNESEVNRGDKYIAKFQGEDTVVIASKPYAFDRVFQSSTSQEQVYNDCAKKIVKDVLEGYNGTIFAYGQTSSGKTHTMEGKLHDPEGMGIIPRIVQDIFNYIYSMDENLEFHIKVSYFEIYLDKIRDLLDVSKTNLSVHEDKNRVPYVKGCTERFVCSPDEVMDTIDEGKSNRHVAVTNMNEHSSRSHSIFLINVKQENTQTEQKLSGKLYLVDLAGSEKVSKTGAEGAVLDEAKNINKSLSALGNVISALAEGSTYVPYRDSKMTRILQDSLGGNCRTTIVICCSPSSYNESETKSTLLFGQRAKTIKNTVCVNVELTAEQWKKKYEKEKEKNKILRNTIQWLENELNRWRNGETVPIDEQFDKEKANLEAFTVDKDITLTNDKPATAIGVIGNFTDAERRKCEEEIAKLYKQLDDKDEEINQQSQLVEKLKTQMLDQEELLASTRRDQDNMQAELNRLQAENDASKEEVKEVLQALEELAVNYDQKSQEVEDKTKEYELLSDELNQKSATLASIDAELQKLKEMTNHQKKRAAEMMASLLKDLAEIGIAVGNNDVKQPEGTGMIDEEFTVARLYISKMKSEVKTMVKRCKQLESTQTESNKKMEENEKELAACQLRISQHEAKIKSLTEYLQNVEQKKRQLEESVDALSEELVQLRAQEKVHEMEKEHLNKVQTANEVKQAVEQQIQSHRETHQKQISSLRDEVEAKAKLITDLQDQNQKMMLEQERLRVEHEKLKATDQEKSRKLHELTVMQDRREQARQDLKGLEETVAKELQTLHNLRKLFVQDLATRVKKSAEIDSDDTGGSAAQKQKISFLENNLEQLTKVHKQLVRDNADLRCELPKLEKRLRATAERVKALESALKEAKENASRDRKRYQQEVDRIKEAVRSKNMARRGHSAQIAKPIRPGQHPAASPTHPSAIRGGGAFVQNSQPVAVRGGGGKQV
# UniProt Q07866: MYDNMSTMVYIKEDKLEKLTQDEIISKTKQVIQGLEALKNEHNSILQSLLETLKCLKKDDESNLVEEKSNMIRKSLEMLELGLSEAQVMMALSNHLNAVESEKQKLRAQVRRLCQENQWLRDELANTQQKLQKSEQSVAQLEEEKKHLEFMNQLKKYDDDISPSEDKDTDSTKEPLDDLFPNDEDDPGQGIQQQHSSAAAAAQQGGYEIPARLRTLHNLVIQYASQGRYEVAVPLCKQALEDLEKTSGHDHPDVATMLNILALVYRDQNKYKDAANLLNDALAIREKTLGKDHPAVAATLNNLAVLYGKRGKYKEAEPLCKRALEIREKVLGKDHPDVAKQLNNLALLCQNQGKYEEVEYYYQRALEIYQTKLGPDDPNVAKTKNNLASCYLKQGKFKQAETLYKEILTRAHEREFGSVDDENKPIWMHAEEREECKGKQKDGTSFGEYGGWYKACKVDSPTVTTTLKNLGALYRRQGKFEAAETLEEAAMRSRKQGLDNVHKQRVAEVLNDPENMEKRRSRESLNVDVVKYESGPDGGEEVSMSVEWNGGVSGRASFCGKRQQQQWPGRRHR
# UniProt Q03164, whole entry: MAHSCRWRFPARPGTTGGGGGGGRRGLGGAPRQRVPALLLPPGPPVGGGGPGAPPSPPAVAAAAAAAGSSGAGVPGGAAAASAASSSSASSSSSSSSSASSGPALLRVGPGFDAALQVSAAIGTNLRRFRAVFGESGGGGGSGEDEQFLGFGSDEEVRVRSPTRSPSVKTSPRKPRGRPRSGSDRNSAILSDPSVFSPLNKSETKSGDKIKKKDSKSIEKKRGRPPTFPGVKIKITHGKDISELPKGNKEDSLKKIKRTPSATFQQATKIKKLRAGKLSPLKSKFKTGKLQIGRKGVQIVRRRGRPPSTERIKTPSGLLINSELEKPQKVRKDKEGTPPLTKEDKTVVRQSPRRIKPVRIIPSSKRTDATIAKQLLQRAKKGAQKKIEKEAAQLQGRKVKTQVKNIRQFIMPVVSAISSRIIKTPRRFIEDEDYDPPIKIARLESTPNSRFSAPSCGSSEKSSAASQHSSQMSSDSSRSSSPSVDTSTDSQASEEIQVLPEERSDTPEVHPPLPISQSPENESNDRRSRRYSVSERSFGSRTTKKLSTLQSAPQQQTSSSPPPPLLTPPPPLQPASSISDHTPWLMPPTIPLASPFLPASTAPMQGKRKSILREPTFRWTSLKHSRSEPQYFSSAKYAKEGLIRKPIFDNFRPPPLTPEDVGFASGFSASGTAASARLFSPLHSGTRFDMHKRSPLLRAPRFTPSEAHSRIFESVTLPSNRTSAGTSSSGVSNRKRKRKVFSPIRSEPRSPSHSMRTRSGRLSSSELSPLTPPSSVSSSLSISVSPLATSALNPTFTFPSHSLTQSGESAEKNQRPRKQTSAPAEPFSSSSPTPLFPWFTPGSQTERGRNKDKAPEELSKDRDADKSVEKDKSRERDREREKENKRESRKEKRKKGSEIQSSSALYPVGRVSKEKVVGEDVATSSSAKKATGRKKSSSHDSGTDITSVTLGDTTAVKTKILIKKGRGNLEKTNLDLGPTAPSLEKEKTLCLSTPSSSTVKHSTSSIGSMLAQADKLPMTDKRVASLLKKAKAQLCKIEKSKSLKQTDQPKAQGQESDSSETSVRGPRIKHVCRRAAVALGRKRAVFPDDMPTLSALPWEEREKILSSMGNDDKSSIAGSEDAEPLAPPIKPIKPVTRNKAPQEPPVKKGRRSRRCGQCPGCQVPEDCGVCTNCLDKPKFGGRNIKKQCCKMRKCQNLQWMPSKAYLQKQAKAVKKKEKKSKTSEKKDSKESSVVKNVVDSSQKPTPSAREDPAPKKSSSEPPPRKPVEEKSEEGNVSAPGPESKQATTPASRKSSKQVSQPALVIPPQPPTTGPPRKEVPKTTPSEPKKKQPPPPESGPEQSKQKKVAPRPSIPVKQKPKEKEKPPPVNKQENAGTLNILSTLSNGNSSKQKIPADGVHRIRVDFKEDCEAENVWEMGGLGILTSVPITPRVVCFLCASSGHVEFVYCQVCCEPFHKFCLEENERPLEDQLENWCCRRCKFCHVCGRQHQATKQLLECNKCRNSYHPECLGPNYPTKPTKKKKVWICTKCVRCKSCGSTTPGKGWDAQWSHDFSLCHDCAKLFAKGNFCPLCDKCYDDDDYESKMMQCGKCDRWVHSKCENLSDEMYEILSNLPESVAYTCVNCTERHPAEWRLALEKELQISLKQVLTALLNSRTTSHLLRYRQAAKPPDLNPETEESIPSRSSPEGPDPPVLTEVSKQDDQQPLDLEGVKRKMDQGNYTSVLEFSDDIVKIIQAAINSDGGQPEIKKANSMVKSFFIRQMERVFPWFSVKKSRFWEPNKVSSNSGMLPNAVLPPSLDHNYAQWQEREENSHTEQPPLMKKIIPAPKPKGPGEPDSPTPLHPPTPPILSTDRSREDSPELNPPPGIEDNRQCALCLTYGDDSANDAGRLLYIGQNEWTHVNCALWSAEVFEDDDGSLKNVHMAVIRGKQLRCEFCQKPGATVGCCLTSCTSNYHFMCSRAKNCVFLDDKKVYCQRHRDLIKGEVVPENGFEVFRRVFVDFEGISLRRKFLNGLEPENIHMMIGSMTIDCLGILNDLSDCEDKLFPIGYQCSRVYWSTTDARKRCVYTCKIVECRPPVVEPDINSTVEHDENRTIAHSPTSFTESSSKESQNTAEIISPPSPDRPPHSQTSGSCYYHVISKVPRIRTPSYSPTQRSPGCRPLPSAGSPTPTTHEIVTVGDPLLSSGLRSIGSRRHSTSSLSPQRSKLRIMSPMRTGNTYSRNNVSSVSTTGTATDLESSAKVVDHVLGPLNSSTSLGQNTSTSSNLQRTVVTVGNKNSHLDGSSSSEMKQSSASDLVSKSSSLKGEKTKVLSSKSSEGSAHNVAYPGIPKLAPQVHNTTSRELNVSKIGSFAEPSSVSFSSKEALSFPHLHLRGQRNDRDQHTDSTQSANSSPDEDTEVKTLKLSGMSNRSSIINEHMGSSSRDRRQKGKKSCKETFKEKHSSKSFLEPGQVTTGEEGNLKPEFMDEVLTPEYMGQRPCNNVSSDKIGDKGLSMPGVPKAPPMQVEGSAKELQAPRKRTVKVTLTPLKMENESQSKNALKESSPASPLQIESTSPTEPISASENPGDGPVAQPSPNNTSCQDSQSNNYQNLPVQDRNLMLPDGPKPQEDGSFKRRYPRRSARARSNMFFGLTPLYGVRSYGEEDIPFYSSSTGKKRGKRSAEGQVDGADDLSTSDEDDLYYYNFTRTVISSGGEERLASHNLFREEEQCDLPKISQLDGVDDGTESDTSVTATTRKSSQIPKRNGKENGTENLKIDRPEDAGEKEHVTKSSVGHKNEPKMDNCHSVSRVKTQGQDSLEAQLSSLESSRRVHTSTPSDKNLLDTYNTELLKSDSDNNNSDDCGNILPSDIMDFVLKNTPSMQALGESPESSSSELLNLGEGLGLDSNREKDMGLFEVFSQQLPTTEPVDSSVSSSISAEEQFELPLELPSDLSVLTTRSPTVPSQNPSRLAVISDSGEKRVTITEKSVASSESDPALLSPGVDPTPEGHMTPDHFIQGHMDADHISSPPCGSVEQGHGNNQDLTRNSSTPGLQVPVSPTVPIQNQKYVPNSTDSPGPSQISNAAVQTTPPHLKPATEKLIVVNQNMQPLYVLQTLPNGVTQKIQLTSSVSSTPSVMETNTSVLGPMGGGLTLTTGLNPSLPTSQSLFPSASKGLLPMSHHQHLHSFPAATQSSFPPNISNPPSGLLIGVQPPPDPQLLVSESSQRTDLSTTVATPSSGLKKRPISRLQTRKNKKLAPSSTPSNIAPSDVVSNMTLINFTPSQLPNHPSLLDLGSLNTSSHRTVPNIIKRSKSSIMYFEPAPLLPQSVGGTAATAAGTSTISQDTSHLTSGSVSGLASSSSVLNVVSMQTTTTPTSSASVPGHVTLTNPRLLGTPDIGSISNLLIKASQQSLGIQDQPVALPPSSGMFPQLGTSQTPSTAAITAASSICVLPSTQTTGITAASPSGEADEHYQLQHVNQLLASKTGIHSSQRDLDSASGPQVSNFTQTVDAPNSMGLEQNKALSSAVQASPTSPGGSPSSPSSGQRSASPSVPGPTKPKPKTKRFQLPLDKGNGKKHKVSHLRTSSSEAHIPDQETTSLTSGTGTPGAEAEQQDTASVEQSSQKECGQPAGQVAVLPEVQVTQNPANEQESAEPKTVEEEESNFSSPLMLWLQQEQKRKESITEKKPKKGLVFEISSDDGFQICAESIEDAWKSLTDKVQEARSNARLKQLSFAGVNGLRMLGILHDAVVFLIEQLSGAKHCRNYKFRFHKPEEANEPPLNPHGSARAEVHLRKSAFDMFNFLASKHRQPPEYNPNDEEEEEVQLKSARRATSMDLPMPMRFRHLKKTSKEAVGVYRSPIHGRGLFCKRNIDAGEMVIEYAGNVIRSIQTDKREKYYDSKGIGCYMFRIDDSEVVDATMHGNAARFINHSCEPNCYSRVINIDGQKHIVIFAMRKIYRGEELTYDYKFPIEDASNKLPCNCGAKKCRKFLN
# UniProt Q96JN0: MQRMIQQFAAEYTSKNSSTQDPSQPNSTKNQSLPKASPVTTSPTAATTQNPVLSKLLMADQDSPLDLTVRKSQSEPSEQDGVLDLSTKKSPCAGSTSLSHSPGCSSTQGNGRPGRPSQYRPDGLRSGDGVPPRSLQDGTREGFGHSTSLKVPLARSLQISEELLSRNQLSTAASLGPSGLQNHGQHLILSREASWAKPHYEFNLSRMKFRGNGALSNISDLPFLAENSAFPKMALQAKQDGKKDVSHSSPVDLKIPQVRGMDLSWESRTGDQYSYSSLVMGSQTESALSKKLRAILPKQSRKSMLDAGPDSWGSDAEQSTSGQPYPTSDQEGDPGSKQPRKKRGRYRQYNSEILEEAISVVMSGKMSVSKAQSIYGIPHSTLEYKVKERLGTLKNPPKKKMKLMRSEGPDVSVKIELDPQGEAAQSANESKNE
# This is one part of the list.
# Compound: CC1Cc2ccccc2N1C(=O)C1CCCN(C1)C(=O)CCl (mixture of isomers) [TRIM25 ligand 11 (diastereomer mixture)]
# Assay: probe-labelled cysteine peptide fold change vs DMSO (competition) (log2 fold change); higher = less target engagement (more negative = stronger competition)
# Conditions: THP-1, incubation time: 4 h
# 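Note: competitive chemoproteomic profiling in live THP-1 cells with an iodoacetamide desthiobiotin (IA-DTB) probe, comparing probe-labelled peptide intensities in compound-treated cells against DMSO-treated controls.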
Target,probe-labelled cysteine peptide fold change (10 µM),probe-labelled cysteine peptide fold change (50 µM)
KLC2_Q9H0B6_474_LEAAHTLEDCASR (UniProt Q9H0B6),-0.0419,-0.0206
KIF5B_P33176_7_ADLAECNIK (UniProt P33176),0.0117,0.0526
LAMP2_P13473_153_CNSLSTLEK (UniProt P13473),0.00999,0.0103
LCP1_P13796_101_KEGICAIGGTSEQSSVGTQHSYSEEEK (UniProt P13796),0.0278,-0.306
KLC4_Q9NSK0_53_SEHQAVLQSLSQTIECLQQGGHEEGLVHEK (UniProt Q9NSK0),-0.107,-0.145
KLC1_Q07866_436_EFGSVDDENKPIWMHAEEREECK (UniProt Q07866),-0.0593,0.0558
KMT2A_Q03164_1194_CQNLQWMPSK (UniProt Q03164),-0.0867,-0.0567
KIF5B_P33176_302_TTIVICCSPSSYNESETK (UniProt P33176),-0.00449,0.0579
LCOR_Q96JN0-3_531_ASCSALASEAVFTPK (UniProt Q96JN0),-0.0661,-0.21
KLHL22_Q53GT1_572+589_DCWEEGPQLDNSISGLAACVLTLPR (UniProt Q53GT1),0.0705,0.112
KIFC1_Q9BW19_663_VNQCVIGTAQANR (UniProt Q9BW19),0.197,0.211
KPNB1_Q14974_223_HFIMQVVCEATQCPDTR (UniProt Q14974),-0.453,-0.386
LCMT2_O60294_396_DCDSEWK (UniProt O60294),0.0776,0.162
KLC1_Q07866-4_621_NNCLADSR (UniProt Q07866),-0.13,-0.168
KIF20A_O95235_487_SCMIVNVNPCASTYDETLHVAK (UniProt O95235),0.0465,0.123
LARP7_Q4G0J3_493_DTLAAISEVLYVDLLEGDTECHAR (UniProt Q4G0J3),0.0973,0.0714
KIF21A_Q7Z4S6_1588_DWVCALGVVPDHPVLLSGCR (UniProt Q7Z4S6),-0.0119,-0.0291
LCOR_Q96JN0-3_1334_MECPDALAVESKPSR (UniProt Q96JN0),-0.101,-0.331
LDHD_Q86WU2_274_LHPAPEATVAATCAFPSVQAAVDSTVHILQAAVPVAR (UniProt Q86WU2),0.0135,0.161
LAS1L_Q9Y4W2_316_GVTCENR (UniProt Q9Y4W2),-0.507,-0.162
KMT2B_Q9UMN6_1268_HLLECER (UniProt Q9UMN6),0.101,0.112
KIF2C_Q99661_40_SCVSVEWAEGGATK (UniProt Q99661),0.0221,0.00403
L2HGDH_Q9H9P8_272_ISELSGCTPDPR (UniProt Q9H9P8),-0.0945,-0.0575
LARS_Q9P2J5_573_RNFEATLGWLQEHACSR (UniProt Q9P2J5),-0.161,-0.0673

# Full records as entered above:
# LCOR_Q96JN0-3_531_ASCSALASEAVFTPK (UniProt Q96JN0) is listed as probe-labelled cysteine peptide fold change (10 µM): -0.0661; probe-labelled cysteine peptide fold change (50 µM): -0.21
# KMT2A_Q03164_1194_CQNLQWMPSK (UniProt Q03164) is listed as probe-labelled cysteine peptide fold change (10 µM): -0.0867; probe-labelled cysteine peptide fold change (50 µM): -0.0567
